In PMC5834214 one finds binding data, which are given here for 56 substances.

The chains behind the UniProt entries cited, without tags or fusion partners.
UniProt P09992: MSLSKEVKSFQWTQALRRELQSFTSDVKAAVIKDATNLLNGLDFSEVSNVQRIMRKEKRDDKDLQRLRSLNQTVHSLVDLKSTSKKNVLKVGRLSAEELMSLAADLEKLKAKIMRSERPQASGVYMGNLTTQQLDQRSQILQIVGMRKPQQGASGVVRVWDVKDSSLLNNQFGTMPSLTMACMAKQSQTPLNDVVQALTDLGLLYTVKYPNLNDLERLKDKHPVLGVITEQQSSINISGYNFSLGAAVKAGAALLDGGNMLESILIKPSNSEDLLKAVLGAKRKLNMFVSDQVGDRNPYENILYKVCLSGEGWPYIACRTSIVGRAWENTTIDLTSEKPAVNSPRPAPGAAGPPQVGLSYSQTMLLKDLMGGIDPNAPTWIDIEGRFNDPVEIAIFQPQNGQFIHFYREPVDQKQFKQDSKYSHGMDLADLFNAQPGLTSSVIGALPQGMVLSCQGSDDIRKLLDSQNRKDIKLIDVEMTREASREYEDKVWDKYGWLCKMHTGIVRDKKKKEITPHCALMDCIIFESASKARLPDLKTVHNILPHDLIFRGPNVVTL
UniProt P50990: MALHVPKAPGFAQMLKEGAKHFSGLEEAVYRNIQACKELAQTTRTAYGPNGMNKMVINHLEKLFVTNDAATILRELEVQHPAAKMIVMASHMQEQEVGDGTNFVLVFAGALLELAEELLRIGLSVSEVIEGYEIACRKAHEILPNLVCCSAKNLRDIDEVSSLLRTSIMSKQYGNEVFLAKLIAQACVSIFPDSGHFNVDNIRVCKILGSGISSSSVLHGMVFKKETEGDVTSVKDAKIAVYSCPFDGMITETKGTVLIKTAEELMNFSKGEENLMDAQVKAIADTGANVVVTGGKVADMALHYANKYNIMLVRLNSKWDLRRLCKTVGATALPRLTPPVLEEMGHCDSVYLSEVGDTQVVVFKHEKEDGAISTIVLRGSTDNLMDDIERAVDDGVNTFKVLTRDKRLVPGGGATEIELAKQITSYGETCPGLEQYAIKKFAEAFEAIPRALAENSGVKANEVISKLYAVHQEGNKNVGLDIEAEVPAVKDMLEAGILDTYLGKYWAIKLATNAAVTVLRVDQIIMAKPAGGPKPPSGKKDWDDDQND
UniProt Q14204: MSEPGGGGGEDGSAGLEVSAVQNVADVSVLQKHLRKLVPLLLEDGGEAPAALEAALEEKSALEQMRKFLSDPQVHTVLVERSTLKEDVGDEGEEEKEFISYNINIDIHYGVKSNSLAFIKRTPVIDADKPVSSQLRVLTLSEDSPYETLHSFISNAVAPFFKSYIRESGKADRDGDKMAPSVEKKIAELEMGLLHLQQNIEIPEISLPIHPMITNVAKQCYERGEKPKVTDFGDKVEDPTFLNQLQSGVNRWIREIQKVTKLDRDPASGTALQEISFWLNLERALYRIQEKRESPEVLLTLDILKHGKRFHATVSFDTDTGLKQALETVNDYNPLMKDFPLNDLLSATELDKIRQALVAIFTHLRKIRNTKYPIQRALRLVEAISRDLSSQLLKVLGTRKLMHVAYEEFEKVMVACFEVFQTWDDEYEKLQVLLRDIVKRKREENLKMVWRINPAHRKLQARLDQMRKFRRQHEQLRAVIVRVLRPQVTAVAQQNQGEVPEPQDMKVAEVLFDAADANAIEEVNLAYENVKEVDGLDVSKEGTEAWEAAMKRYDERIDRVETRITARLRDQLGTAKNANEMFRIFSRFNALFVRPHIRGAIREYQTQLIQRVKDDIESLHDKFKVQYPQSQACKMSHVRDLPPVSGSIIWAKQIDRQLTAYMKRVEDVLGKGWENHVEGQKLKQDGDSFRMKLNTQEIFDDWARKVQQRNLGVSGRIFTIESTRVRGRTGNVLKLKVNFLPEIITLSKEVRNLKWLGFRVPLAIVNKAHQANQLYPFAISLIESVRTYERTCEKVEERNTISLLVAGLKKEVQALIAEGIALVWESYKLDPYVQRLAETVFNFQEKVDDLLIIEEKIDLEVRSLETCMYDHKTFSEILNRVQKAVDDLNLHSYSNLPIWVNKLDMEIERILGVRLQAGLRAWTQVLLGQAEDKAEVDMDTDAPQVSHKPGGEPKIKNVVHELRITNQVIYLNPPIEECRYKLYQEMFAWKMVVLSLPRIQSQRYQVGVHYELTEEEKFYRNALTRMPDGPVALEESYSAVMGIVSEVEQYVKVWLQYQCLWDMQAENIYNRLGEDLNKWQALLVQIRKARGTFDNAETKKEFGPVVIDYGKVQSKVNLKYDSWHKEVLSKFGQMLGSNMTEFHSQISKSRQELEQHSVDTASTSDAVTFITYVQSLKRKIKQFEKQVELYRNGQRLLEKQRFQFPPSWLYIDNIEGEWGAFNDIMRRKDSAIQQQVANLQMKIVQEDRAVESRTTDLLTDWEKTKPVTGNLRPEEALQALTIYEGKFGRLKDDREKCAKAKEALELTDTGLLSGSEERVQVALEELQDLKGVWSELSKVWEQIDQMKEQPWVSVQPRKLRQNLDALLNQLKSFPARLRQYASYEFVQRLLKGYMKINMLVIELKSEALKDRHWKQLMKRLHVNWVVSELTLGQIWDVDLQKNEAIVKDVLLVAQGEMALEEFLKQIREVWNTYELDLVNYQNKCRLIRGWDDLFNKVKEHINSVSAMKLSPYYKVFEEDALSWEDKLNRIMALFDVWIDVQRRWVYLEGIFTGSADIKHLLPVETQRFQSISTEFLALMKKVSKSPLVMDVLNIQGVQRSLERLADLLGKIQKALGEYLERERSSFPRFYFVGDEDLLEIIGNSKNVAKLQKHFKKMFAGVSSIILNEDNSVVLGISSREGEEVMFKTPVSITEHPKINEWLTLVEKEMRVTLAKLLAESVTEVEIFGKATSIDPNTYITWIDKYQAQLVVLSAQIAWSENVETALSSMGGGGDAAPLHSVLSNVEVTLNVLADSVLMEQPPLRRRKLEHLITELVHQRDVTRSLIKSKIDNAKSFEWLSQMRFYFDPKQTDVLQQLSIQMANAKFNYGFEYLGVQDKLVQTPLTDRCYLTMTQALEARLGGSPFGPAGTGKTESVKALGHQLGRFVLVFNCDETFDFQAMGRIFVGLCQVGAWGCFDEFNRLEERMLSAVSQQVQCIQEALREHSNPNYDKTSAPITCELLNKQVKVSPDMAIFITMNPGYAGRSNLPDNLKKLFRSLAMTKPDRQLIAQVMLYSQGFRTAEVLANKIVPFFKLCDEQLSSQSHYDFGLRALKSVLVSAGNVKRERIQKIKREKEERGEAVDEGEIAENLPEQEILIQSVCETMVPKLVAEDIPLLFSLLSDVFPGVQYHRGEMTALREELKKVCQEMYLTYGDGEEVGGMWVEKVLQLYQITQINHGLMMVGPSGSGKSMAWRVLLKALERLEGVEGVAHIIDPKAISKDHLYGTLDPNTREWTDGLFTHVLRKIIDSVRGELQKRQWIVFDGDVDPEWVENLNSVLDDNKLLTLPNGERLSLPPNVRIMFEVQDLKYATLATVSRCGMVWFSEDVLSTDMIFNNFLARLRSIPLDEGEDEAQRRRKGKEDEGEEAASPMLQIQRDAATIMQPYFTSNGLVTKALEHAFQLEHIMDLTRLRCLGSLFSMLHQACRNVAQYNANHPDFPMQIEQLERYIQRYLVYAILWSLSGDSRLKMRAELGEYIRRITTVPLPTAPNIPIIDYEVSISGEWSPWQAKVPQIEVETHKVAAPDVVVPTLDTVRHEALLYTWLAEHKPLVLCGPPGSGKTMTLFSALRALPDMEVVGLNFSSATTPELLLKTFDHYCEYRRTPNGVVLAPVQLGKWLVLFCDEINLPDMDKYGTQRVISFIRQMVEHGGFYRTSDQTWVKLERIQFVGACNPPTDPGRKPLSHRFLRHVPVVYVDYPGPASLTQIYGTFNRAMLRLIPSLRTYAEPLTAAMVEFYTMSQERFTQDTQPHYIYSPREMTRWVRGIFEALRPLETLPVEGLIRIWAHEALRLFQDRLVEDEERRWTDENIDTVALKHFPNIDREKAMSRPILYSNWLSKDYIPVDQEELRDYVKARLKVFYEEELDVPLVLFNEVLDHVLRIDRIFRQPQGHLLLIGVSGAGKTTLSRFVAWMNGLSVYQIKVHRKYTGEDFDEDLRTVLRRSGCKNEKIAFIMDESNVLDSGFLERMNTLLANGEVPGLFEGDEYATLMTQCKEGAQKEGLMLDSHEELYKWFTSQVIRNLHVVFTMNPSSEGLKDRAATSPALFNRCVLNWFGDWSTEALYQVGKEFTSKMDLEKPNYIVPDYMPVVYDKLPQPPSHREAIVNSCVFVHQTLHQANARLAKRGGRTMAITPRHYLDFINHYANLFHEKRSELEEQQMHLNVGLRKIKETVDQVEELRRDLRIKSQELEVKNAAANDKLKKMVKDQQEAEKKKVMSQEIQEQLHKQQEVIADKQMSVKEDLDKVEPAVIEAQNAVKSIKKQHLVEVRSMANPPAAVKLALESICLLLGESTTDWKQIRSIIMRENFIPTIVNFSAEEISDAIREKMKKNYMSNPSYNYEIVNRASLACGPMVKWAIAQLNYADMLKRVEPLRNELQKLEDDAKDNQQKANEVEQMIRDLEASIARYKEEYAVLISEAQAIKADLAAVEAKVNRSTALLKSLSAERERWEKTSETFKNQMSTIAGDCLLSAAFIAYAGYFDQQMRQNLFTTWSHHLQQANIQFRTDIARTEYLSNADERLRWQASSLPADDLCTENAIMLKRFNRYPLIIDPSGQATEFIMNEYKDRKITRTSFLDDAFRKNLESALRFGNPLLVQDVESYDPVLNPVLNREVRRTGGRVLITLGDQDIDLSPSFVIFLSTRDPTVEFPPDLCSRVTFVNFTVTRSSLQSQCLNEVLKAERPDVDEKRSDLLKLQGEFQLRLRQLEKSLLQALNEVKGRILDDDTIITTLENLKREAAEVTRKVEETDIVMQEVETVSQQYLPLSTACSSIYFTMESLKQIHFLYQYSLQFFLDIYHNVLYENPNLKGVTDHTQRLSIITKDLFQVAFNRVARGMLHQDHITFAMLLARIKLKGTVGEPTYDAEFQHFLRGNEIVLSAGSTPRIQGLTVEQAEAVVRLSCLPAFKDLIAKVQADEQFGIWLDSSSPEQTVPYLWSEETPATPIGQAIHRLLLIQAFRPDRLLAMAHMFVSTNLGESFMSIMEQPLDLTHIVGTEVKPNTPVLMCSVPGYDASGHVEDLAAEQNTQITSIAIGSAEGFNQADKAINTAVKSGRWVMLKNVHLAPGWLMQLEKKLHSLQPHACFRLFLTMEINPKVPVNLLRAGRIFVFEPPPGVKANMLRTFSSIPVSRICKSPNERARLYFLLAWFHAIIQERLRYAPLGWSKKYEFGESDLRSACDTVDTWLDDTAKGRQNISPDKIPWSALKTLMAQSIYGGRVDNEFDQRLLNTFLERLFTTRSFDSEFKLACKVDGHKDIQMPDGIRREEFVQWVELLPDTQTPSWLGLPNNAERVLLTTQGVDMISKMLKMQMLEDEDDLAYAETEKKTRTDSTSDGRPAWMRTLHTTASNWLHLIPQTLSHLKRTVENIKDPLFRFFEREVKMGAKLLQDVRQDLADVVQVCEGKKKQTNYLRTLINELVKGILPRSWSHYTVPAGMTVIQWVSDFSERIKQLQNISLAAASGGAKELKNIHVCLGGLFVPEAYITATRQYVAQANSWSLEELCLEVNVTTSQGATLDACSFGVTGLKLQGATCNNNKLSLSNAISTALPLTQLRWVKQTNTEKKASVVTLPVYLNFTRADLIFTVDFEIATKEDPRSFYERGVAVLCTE
UniProt Q9UHV9: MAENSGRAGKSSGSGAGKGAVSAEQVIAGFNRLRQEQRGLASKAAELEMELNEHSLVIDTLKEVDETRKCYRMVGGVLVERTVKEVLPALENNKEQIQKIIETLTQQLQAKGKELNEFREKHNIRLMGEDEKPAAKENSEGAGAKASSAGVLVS
UniProt P11940: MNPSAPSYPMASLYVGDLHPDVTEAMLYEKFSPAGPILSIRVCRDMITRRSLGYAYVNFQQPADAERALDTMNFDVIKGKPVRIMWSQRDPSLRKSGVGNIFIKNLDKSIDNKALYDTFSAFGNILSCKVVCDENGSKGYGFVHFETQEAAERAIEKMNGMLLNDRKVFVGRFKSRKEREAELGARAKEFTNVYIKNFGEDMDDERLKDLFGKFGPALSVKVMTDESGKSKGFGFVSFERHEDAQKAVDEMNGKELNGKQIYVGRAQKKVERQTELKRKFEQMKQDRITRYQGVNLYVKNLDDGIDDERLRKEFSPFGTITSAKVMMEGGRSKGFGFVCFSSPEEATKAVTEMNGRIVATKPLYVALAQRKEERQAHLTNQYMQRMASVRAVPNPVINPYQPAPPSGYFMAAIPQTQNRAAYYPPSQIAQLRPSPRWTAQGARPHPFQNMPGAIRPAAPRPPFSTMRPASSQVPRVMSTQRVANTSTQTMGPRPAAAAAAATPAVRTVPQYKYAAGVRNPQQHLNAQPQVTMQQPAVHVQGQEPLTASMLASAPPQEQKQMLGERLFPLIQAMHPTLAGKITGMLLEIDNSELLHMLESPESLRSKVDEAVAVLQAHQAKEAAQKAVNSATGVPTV

Results are given in words; binding and its absence hold for the method and conditions named. Binding seen in cells or lysates may run through a third protein. These calls come from enrichment with a bait or labelling near it, and not all partners need be listed.

In the assay the target is Strep-tagged nucleoprotein (NP) of lymphocytic choriomeningitis virus, encoded by rLCMV/Strep-NP (lymphocytic choriomeningitis virus (LCMV), clone 13) (UniProt P09992). Put plainly: affinity purification with mass spectrometry.
For the substance “Heat shock protein beta-1 (from UniProt P04792 1-205)”, the binding result is listed as “binds”.

As for “Tubulin alpha-4A chain (from UniProt P68366 1-448)”, the binding result is “binds”. Regarding “Keratin, type II cytoskeletal 75 (from UniProt O95678 1-551)”, the binding result is recorded as “binds”. As for “Large neutral amino acids transporter small subunit 1 (from UniProt Q01650 1-507)”, the entry is “binds”; as for “Poly(rC)-binding protein 1 (from UniProt Q15365 1-356)”, “binds”. Next, “Keratin, type I cytoskeletal 19 (from UniProt P08727 1-400)”: “binds”; Filamin-B (from UniProt O75369 1-2602): “binds”; Myosin-4 (from UniProt Q9Y623 1-1939): “binds”. “T-complex protein 1 subunit theta (from UniProt P50990 1-548)”: the binding result is on record as “binds”.

In the case of “Cytoplasmic FMR1-interacting protein 2 (from UniProt Q96F07 1-1278)”, the binding result is given as “binds”. On to “Probable ATP-dependent RNA helicase DDX5 (from UniProt P17844 1-614)”, for which the binding entry is listed as “binds”. Take “Cytoplasmic FMR1-interacting protein 1 (from UniProt Q7L576 1-1253)”: the binding result is reported as “binds”.

With Filamin-A (from UniProt P21333 1-2647), the binding result is on record as “binds”. As for “Elongation factor 1-alpha 1 (from UniProt P68104 1-462)”, the entry is “binds”. For “Heat shock-related 70 kDa protein 2 (from UniProt P54652 1-639)”, the binding entry was “binds”. Consider “T-complex protein 1 subunit eta (from UniProt Q99832 1-543)”, for which the binding entry is on record as “binds”. For the substance “Alpha-actinin-1 (from UniProt P12814 1-892)”, the binding entry is “binds”. On to “Tight junction protein ZO-1 (from UniProt Q07157 1-1748)”, for which the binding result is “binds”. As for “Tubulin alpha-1C chain (from UniProt Q9BQE3 1-449)”, the entry is “binds”. On to “UPF0515 protein C19orf66 (from UniProt Q9NUL5 1-291)”, for which the binding entry is reported as “binds”.

For “CAD protein (from UniProt P27708 1-2225)”, the binding result is given as “binds”. Regarding “Transgelin-2 (from UniProt P37802 1-199)”, the binding result is listed as “binds”. As for “T-complex protein 1 subunit epsilon (from UniProt P48643 1-541)”, the entry is “binds”; as for “Tubulin beta-4B chain (from UniProt P68371 1-445)”, “binds”; as for “Spectrin beta chain, non-erythrocytic 1 (from UniProt Q01082 1-2364)”, “binds”.

Myosin-9 (from UniProt P35579 1-1960): the binding result is reported as “binds”. “60 kDa SS-A/Ro ribonucleoprotein (from UniProt P10155 1-538)”: the binding entry is on record as “binds”. For “Heat shock protein HSP 90-beta (from UniProt P08238 1-724)”, the binding result is reported as “binds”. Next, “YTH domain-containing family protein 3 (from UniProt Q7Z739 1-585)”: “binds”; “Heat shock cognate 71 kDa protein (from UniProt P11142 1-646)”: “binds”; “Clathrin heavy chain 1 (from UniProt Q00610 1-1675)”: “binds”.

For “Microtubule-associated protein 1B (from UniProt P46821 1-2468)”, the binding entry is “binds”. Turning to “Histone H1.5 (from UniProt P16401 1-226)”, the binding result was “binds”. With “Thioredoxin domain-containing protein 5 (from UniProt Q8NBS9 33-432)”, the binding entry is listed as “binds”.

Take “Heat shock protein 105 kDa (from UniProt Q92598 1-858)”: the binding result was “binds”. Turning to “Tubulin alpha-1B chain (from UniProt P68363 1-451)”, the binding entry was “binds”. As to “Endoplasmin (from UniProt P14625 22-803)”, the binding result is on record as “binds”. In the case of “Keratin, type II cytoskeletal 7 (from UniProt P08729 1-469)”, the binding entry is listed as “binds”. “Stress-70 protein, mitochondrial (from UniProt P38646 47-679)”: the binding entry is given as “binds”. For the substance “Pre-mRNA-processing factor 40 homolog A (from UniProt O75400 1-957)”, the binding result was “binds”.

As for “Aldo-keto reductase family 1 member B10 (from UniProt O60218 1-316)”, the binding result was “binds”. Take “Cytoplasmic dynein 1 heavy chain 1 (from UniProt Q14204 1-4646)”: the binding entry is reported as “binds”.

With “Alpha-actinin-4 (from UniProt O43707 1-911)”, the binding result is given as “binds”.

“Prefoldin subunit 2 (from UniProt Q9UHV9 1-154)”: the binding result is on record as “binds”. Next, “Elongation factor 1-delta (from UniProt P29692 1-281)”: “binds”; Filamin-C (from UniProt Q14315 1-2725): “binds”. Next, “Nck-associated protein 1 (from UniProt Q9Y2A7 1-1128)”: “binds”; “Prelamin-A/C (from UniProt P02545 1-646)”: “binds”. As to “Nuclear cap-binding protein subunit 1 (from UniProt Q09161 1-790)”, the binding entry is on record as “binds”. For the substance Protein SET (from UniProt Q01105 1-290), the binding entry is listed as “binds”. Regarding “RNA-binding motif protein, X chromosome (from UniProt P38159 1-391)”, the binding entry is “binds”. As for “4F2 cell-surface antigen heavy chain (from UniProt P08195 1-529)”, the binding entry was “binds”. Turning to “Polyadenylate-binding protein 1 (from UniProt P11940 1-636)”, the binding result was “binds”. As for “DNL-type zinc finger protein (from UniProt Q5SXM8 50-178)”, the entry is “binds”.

With Histone H1x (from UniProt Q92522 1-213), the binding entry is listed as “binds”.

Regarding “Heat shock protein HSP 90-alpha (from UniProt P07900 1-732)”, the binding entry was “binds”.
